Results: paper PMC5046144
These are yes or no findings as the source states them, for the method shown. In cells and extracts the contact can be indirect. Here binding means that the protein was enriched with, or labelled near, the bait; the list need not be complete. One block for each binder: values may come before it.

Target: Channelrhodopsin 1 (Chlamydomonas reinhardtii (endogenous in C. reinhardtii cells))
Test: affinity purification with mass spectrometry; ChR1 immunoprecipitated with anti-ChR1 from pre-cleared C. reinhardtii total cell lysate (IP-lysis buffer: 1X PBS, 1% NP-40, 0.5% sodium deoxycholate, 0.1% SDS), overnight at 4 °C, protein A/G beads; eluate trypsin digested, Nano-LC-MS/MS; hits present in ChR1-IP but not in the pre-immune serum control

- binding: binds
B1: Kinesin-2 (protein, UniProt A7LGV1 1-768)
chain: MASGGECVKVAVRCRPLNGKEKGDNRATIVEVDNKTGQVTLNNPKGDEPPKTFTFDNAFDWNVTQRDVYDVVARPIVNSVMDGYNGTIFAYGQTGTGKTHTMEGFPTPELQGIIPNCFDHVFETVNSSTGKQWMVRASYLEIYNEEVRDLLSKDPKNKLELKEHKDSGVYVKGLNAFVVKGVPELKNVLEVGKKNRSVGATLMNQDSSRSHSIFTITIETIEQTQAQPEGHIRVGKLNLVDLAGSERQSKTGATGDRLKEATKINLSLSALGNVISALVDGKSGHVPYRDSKLTRLLQDSLGGNTKTIMCANMGPADWNYDETLSTLRYANRAKNIKNKPKINEDPKDAMLREFQDEIARLKAALEAEGGALPEGFATGPGGEIIVEKVVQVPKALDASFLEQMRKDMEEQMKKELASQQAAALNDEQLQKVKEEAAAKAKAEAARLEEEKKKAEEEAARMQRKQQKIKAEMDKKSLDAEQIRAEKEALAKKLKAMESKILKGDQAGGLAEVTKKKEEELKRKEQELERRRKEEEEQRKKIQVMEEQQLAMEDKYKDKADEADQKTKKLKKLWKKFQEVNAEVEDMYKEFQREKEDLLESIRMLQDQMQLKDMVIEAFIPPEEVQKVMKRAHWDDEREVWVLERLSDIGKRETAQGASRRPVSASGQRRPTSDFAKLANAMGDMNPRFKSENILNLELDLPERTTYDYEGPGVDPRVQAAINAAFAEDGELIFVGSEQNVHLGDASAAAARPDSAKKRPASARKGTKK

- binding: binds
B2: IFT20 (protein, UniProt Q8LLV9 1-135)
chain: MDAVDRGVYFDEDFHVRILDVDKYNASKSLQDNTNVFINNIQNMQGLVDKYVSAIDQQVERLEAEKLKAIGLRNRVAALSEERKRKQKEQERMLAEKQEELERLQMEEQSLIKVKGEQELMIQKLSDSSSGAAYV
